# Measured values published in patent US20220226329A1, “METHOD TO INDUCE HEMATOPOIETIC CHIMERISM” (The General Hospital Corporation, priority 2019, published 2022).
# Where “and” joins values, the source holds several entries; their conditions need not be identical. Identical values can stand only once. Entries after “also recorded” stand apart in the source; their conditions may differ. For at least one compound, name, drawing or mass did not settle the structure.
# What was measured:
# [1] = system: BAX (the BCL-2-associated X protein); test: Intrinsic apoptosis: expression of BAX and other apoptotic markers in peripheral lymphocytes (flow cytometry, CyTOF); type: in vivo, Cynomolgus monkeys
# Description: To examine intrinsic apoptosis induced by ABT-199, expression of BAX (the BCL-2-associated X protein), which is pro-apoptotic protein that plays an important role in the mitochondria-dependent apoptotic pathway was assessed.
# Flow cytometric and CyTOF analyses: Peripheral blood mononuclear cells (PBMCs) were labeled with a combination of the following mAbs: CD3 (SP34-2), CD4 (L200), CD8 (SK1), CD21 (B-ly4), CD27 (M-T271), CD28 (CD28.2), CD95 (DX2), and IgM (G20-127) (BD Pharmingen, San Jose, Calif.), CD20 (2H7) (Biolegend, Inc., San Diego, Calif.) and FOXP3 (236A/E7) (eBioscience, Inc., San Diego, Calif.). The fluorescence of the stained samples was analyzed using FACSverse (BD Biosciences, San Jose, Calif.) and Accuri flow cytometers (BD PharMingen), and FlowJo software (Tree Star, Inc., Ashland, Oreg.). A CyTOF panel for cynomolgus monkeys was designed. The CyTOF panel consisted of antibodies against various NHP leukocyte markers including CD3, CD4, CD8, Foxp3, CD127, CTLA4, Ki-67, CD95, CD20, CD21, CD27, CD38, CD123, CD31, CD11c, CD25, HLA-DR, CD45RA, CD159 (NKG2a), Granzyme B, Caspase 3/7/9, Bax and Cytochrom C.
# Cynomolgus monkeys [2] = test: Hematopoietic chimerism after combined kidney and bone marrow transplantation (CKBMT), flow cytometry of peripheral blood; type: in vivo; settings: for Chimerism: recipients with chimerism/total
# Description: (§1) To evaluate whether Bcl-2 inhibitor (ABT-199) can promote engraftment of hematopoietic stem cells with reduced myelosuppressive therapy, monkeys were treated with various modified regimens with ABT-199 and compared with standard regimen without ABT-199. The basic conditioning regimen consisted of low dose total body irradiation (TBI), thymic irradiation (TI, 7 Gy) and peri-transplant ATG administration. After combined kidney and bone marrow transplantation, the recipients were treated with anti-CD154 mAb for 2 weeks and CyA for 4 weeks, after which no immunosuppression was given (FIG. 1). In Groups C-E, 10 mg/kg of ABT-199 was administered for 11 days (day −4 to day 6). Animals were divided into five groups according to the treatments (Table 1).
# (§2) Animals and pair selections: Cynomolgus monkeys, including donor animals, weighing 4-8 kg were used for this study (Charles River Primates, Wilmington, Mass.). Donors and recipients were paired on the basis of ABO blood type compatibility and major histocompatibility complex (MHC) mismatching. MHC characterization was performed as previously described (O'Connor, S. L., et al. 2007, Immunogenetics 59, 449-462.; Pendley, C. J., et al. 2008, Immunogenetics 60, 339-351.). All surgical procedures and postoperative care of animals were performed in accordance with National Institute of Health guidelines for the care and use of primates and were approved by the Massachusetts General Hospital Institutional Animal Care and Use Committee (IACUC).
# Following DBMT, the recipients were also treated with anti-CD154 mAb (5c8; 20 mg/kg i.v. on days 0 and 2, 7, and 12 post-DBMT). Cyclosporine A (CyA, Novartis, Basel, Switzerland) was administered intramuscular (IM) on days 0-27 post DBMT, after which no immunosuppression was administered (FIG. 6).
# Bone marrow transplantation: Donor bone marrow cells (DBMC) were obtained by multiple aspirations from the iliac crests, humerus head, and vertebral bones under general anesthesia. If the donor animal was sacrificed, DBMC were harvested from the vertebral bones after euthanasia. DBMC (1.0-3.0×10^8 mononuclear cells/kg) were infused intravenously.
# Detection of hematopoietic chimerism: A monkey was selected that was either BB7.6 (HLA-B7B40) positive or a H38 (HLA-BW6) positive monkey as a donor and a monkey negative to these antibodies was selected as a recipient. In all experiments, the percentage of cells that stained with each mAb was determined from one color fluorescence histogram and compared with those obtained from donor and pretreatment frozen recipient cells, which were used as positive and negative controls. The percentage of cells considered positive was determined with a cutoff chosen as the fluorescence level at the beginning of the positive peak for the positive control stain and by subtracting the percentage of cells stained with an isotype control. By using forward and 90° light scatter (FSC and SSC, respectively) dot plots, lymphocyte (FSC- and SSC-low), granulocyte (SSC-high), and monocyte (FSC-high but SSC-low) populations were gated, and chimerism was determined separately for each population. Nonviable cells were excluded by propidium iodide (Thermo Fischer Scientific, Grand Island, N.Y.) staining.
# Cynomolgus monkeys [3] = test: Renal allograft survival / rejection after CKBMT without maintenance immunosuppression; type: in vivo; settings: for Renal Allograft Survival (days): per animal
# Description: as §1, with “After combined kidney and bone marrow transplantation, the recipients were treated with anti-CD154 mAb for 2 weeks and CyA for 4 weeks, after which no immunosuppression was given (FIG. 1).” left out
# as §2
# Combined kidney and bone marrow transplantation (CKBMT): All recipients were conditioned with total body irradiation (TBI) (1.5 Gy on day −5, relative to the day of CKBMT), local thymic irradiation (TI) (7 Gy on day −1) and equine-derived anti-thymocyte globulin (hATG) (Atgam; Pharmacia and Upjohn, Kalamazoo, Mich.; 50 mg/kg/day i.v. on days −2, −1 and 0). […] Cyclosporine A (CyA, Novartis, Basel, Switzerland) was administered intramuscular (IM) on days 0-27 post DBMT, after which no immunosuppression was administered (FIG. 6).
# Kidney transplantation (KTx): Monkeys underwent heterotopic KTx and nephrectomy as previously described (Cosimi, A. B., et al. 1990, Surgery 108, 406-413.).
# Statistical analyses: Statistical analysis was performed with GraphPad PRISM 7.01 (GraphPad Software, Inc, San Diego, Calif.). We used two way ANOVA to compare chimerism, CBC, and T cell subsets. Mantel-Cox log-rank test was used to analyze survival of different groups and. P values lower than 0.05 have been considered statistically significant.
# Cynomolgus monkeys [4] = test: Skin transplantation one year after CKBMT (donor vs third party skin); type: in vivo; settings: Example 3 Group D, third party skins rejected within one week
# [5] = system: T cells, B cells, and NK cell; test: Peripheral blood lymphocyte subset counts (deletion) by flow cytometry; type: in vivo, Cynomolgus monkeys
# [6] = Example 2 Group D: ABT-199 +, TBI 0 Gy, TI 7 Gy
# [7] = Example 2 Group E: ABT-199 +, TBI 1.5 Gy, TI 0 Gy
# [8] = Example 3 Group F: venetoclax +, TBI 1.5 Gy, TI 7 Gy, no CoB
# [9] = Example 3 Group G: venetoclax +, TBI 1.5 Gy, TI 0 Gy, CoB aCD154
# [10] = Example 3 Group H: venetoclax +, TBI 0 Gy, TI 7 Gy, CoB aCD154
# [11] = Example 2 Group C: ABT-199 +, TBI 1.5 Gy, TI 7 Gy
smiles,measurement,setting,value
CC1(C)CCC(CN2CCN(c3ccc(C(=O)NS(=O)(=O)c4ccc(NCC5CCOCC5)c([N+](=O)[O-])c4)c(Oc4cnc5[nH]ccc5c4)c3)CC2)=C(c2ccc(Cl)cc2)C1 [venetoclax],"Bax expression in T cells, B cells and NK cells compared to pre Rx levels","[1]; 10 mg/kg x 11 (day -4 to +6), TBI 1.5 Gy regimen, n=3",higher Bax expression
same,Expression of BAX in CD4 and CD8 T cells,"[1]; Example 2 Group C (ABT-199) vs Group B (no ABT-199), TBI 1.5 Gy",consistently higher
same,Expression of Bax and Caspase 3 in CD4+ and CD8+ T cells,"[1]; second week post-transplant, vs animals not administered venetoclax",higher
same,"Expression of apoptotic markers (Bcl-2, Cytochrome C, Bax, Caspases 3, 7, 9), CyTOF t-SNE maps","[1]; time course, active apoptosis subsided by day 19",upregulated expression of apoptotic markers until day 12
same,Chimerism,Cynomolgus monkeys [2]; [6],failed to develop chimerism; also recorded: failed to develop MC
same,Chimerism,Cynomolgus monkeys [2]; [7],successfully developed chimerism; also recorded: developed hematopoietic chimerism
same,Level of lymphoid and myeloid chimerism compared with groups without venetoclax,"Cynomolgus monkeys [2]; Example 3 Group D (TBI 1.5 Gy, venetoclax, anti-CD154 mAb) vs Group A (TBI 3 Gy) and Group C (TBI 1.5 Gy)",significantly higher (p<0.005) and more prolonged; also recorded: significantly higher
same,Chimerism level vs Group D,"Cynomolgus monkeys [2]; Example 3 Group E (venetoclax, belatacept)",less than that achieved by Group D recipients
same,Chimerism,"Cynomolgus monkeys [2]; Example 3 Group E: venetoclax +, TBI 1.5 Gy, TI 7 Gy, CoB Belatacept",developed multilineage chimerism
same,Chimerism,Cynomolgus monkeys [2]; [8],failed to develop chimerism; also recorded: No chimerism was detected
same,Chimerism level vs Group D,"Cynomolgus monkeys [2]; Example 3 Group G (venetoclax, no TI)",significantly lower; also recorded: significantly (p<0.05) inferior
same,Chimerism,Cynomolgus monkeys [2]; [9],developed chimerism
same,Chimerism,Cynomolgus monkeys [2]; [10],failed to develop chimerism
same,Outcome,Cynomolgus monkeys [3]; [11],without rejection; also recorded: no rejection
same,Outcome,Cynomolgus monkeys [3]; [6],acute cellular rejection and developed rejection and 2: acute rejection
same,Outcome,Cynomolgus monkeys [3]; [7],chronic rejection and developed rejection and 3: chronic rejection
same,"Chronic rejection, DSA, renal allograft biopsy","Cynomolgus monkeys [3]; Example 3 Group D recipients, biopsy on day 800",neither chronic rejection nor DSA; also recorded: no diagnostic abnormality
same,Renal Allograft Survival (days),Cynomolgus monkeys [3]; [8],rejected their renal allografts rapidly
same,Renal Allograft Survival (days),Cynomolgus monkeys [3]; [9],rejected their kidney allograft early
same,Renal Allograft Survival (days),Cynomolgus monkeys [3]; [10],rejected their allograft early
same,Skin graft from the kidney and bone marrow donor,Cynomolgus monkeys [4],specific acceptance
same,Deletion of CD4 and CD8 effector memory T cells (TEM),"[5]; 10 mg/kg x 11, venetoclax vs navitoclax, n=3 per group",more effective deletion
same,Lymphocyte depletion,[5]; [11],excellent lymphocyte depletion
same,"Deletion of CD4+ effector memory, CD8+ central memory, CD8+ EM and NK cells","[5]; venetoclax 10 mg/kg x 11 (days -4 to 6), TBI 1.5 Gy, Groups D or E",Prompt deletion
same,Regulatory T cells (Tregs),"[5]; venetoclax 10 mg/kg x 11, TBI 1.5 Gy",enrichment of Tregs
